# Experimental data as given in the supplement of paper PMC4604168 (melanoma cell lines).
# Some of the results follow. Many values rest on one well or one pass, so single values are uncertain.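 Cells were imaged in 1,536-well plates, and nuclei stained with an antibody against cleaved PARP were counted against all DNA-stained nuclei to give the apoptosis fraction. Screening doses were chosen to leave most cells alive, and resting and induced cleaved-PARP levels differ strongly between cell lines.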
# Tested on: MeWo
# Experiment: cleaved PARP positive nuclei fraction relative to DMSO control; melanoma cells; higher = more apoptosis
# Conditions: library dose: low library concentration; 72 h
row,SMILES,cleaved PARP positive nuclei fraction
1,"Cc1cn(-c2cc(NC(=O)c3ccc(C)c(Nc4nccc(-c5cccnc5)n4)c3)cc(C(F)(F)F)c2)cn1 [nilotinib] + CN(c1ncccc1CNc1nc(Nc2ccc3c(c2)CC(=O)N3)ncc1C(F)(F)F)S(C)(=O)=O [PF562271] (first compound 0.2 µM, partner dose 0.08 µM)",139%
2,"CC[C@]1(O)C[C@H]2CN(CCc3c([nH]c4ccccc34)[C@@](C(=O)OC)(c3cc4c(cc3OC)N(C=O)[C@H]3[C@@](O)(C(=O)OC)[C@H](OC(C)=O)[C@]5(CC)C=CCN6CC[C@]43[C@@H]65)C2)C1 [vincristine] + COCC[n+]1c2c(n(Cc3cnccn3)c1C)C(=O)c1ccccc1C2=O [YM155] (first compound 0.0001 µM, partner dose 0.0004 µM)",342%
3,"Cc1cn(-c2cc(NC(=O)c3ccc(C)c(Nc4nccc(-c5cccnc5)n4)c3)cc(C(F)(F)F)c2)cn1 [nilotinib] + O=C(O)[C@@H]1[O][Sb](=[O])([O][Sb]2(=[O])[O][C@H]([C@H](O)CO)[C@H](O)[C@H](C(=O)O)[O]2)[O][C@H]([C@H](O)CO)[C@@H]1O [stibogluconate] (first compound 0.2 µM, partner dose 2 µM)",134%
4,"COc1cc([C@@H]2c3cc4c(cc3[C@@H](O[C@@H]3O[C@@H]5CO[C@@H](C)O[C@H]5[C@H](O)[C@H]3O)[C@H]3COC(=O)[C@H]23)OCO4)cc(OC)c1O [etoposide] + CCCCCCCCCCCCCCCCCCOP(=O)([O-])OC1CC[N+](C)(C)CC1 [Perifosine] (first compound 0.02 µM, partner dose 0.4 µM)",55.8%
5,"O=C(/C=C/c1cccnc1)NCCCCC1CCN(C(=O)c2ccccc2)CC1 + CS(=O)(=O)c1ccc(C(=O)Nc2ccc(Cl)c(-c3ccccn3)c2)c(Cl)c1 [vismodegib] (first compound 0.01 µM, partner dose 1 µM)",117%
6,"O=C(Nc1cc(C(F)(F)F)cc(C(F)(F)F)c1)c1cc(Cl)ccc1O + CCCCCCCCc1ccc(CCC(N)(CO)CO)cc1 [fingolimod] (first compound 0.016 µM, partner dose 2 µM)",71.1%
7,"CC[C@]1(O)C[C@H]2CN(CCc3c([nH]c4ccccc34)[C@@](C(=O)OC)(c3cc4c(cc3OC)N(C=O)[C@H]3[C@@](O)(C(=O)OC)[C@H](OC(C)=O)[C@]5(CC)C=CCN6CC[C@]43[C@@H]65)C2)C1 [vincristine] + CCCCCCCCCCCCCCCCCCOP(=O)([O-])OC1CC[N+](C)(C)CC1 [Perifosine] (first compound 0.0001 µM, partner dose 0.4 µM)",66%
8,"Cc1cc(Nc2cc(N3CCN(C)CC3)nc(Sc3ccc(NC(=O)C4CC4)cc3)n2)n[nH]1 [Tozasertib] + C#Cc1cccc(Nc2ncnc3cc(OCCOC)c(OCCOC)cc23)c1 [erlotinib] (first compound 0.006 µM, partner dose 0.8 µM)",146%
9,"Cc1cc(Nc2cc(N3CCN(C)CC3)nc(Sc3ccc(NC(=O)C4CC4)cc3)n2)n[nH]1 [Tozasertib] + CO[C@H]1C[C@@H]2CC[C@@H](C)[C@@](O)(O2)C(=O)C(=O)N2CCCC[C@H]2C(=O)O[C@H]([C@H](C)C[C@@H]2CC[C@@H](OCCO)[C@H](OC)C2)CC(=O)[C@H](C)/C=C(\C)[C@@H](O)[C@@H](OC)C(=O)[C@H](C)C[C@H](C)/C=C/C=C/C=C/1C [everolimus] (first compound 0.006 µM, partner dose 0.02 µM)",80.6%
10,"Cc1ccc(Nc2nccc(N(C)c3ccc4c(C)n(C)nc4c3)n2)cc1S(N)(=O)=O [Pazopanib] + C#Cc1cccc(Nc2ncnc3cc(OCCOC)c(OCCOC)cc23)c1 [erlotinib] (first compound 0.4 µM, partner dose 0.8 µM)",73.8%
11,"CCCCCCCCCCCCCCCCCCOP(=O)([O-])OC1CC[N+](C)(C)CC1 [Perifosine] + C=C(c1ccc(C(=O)O)cc1)c1cc2c(cc1C)C(C)(C)CCC2(C)C [Bexarotene] (first compound 0.4 µM, partner dose 2 µM)",99.6%
12,"O=c1[nH]nc(Sc2ncc([N+](=O)[O-])s2)n1-c1ccc2c(c1)OCCO2 + Cc1cc(Nc2cc(N3CCN(C)CC3)nc(/C=C/c3ccccc3)n2)n[nH]1 [ENMD2076] (first compound 0.2 µM, partner dose 0.04 µM)",54%
13,"CCCCCCCCCCCCCCCCCCOP(=O)([O-])OC1CC[N+](C)(C)CC1 [Perifosine] + Clc1ccc(Nc2nnc(Cc3ccncc3)c3ccccc23)cc1 [vatalanib] (first compound 0.4 µM, partner dose 2 µM)",94.5%
14,"Cc1cn(-c2cc(NC(=O)c3ccc(C)c(Nc4nccc(-c5cccnc5)n4)c3)cc(C(F)(F)F)c2)cn1 [nilotinib] + Cn1nnc2c(C(N)=O)ncn2c1=O [temozolomide] (first compound 0.2 µM, partner dose 2 µM)",99.7%

# Records 6–7, quoted:
row,SMILES,cleaved PARP positive nuclei fraction
6,"O=C(Nc1cc(C(F)(F)F)cc(C(F)(F)F)c1)c1cc(Cl)ccc1O + CCCCCCCCc1ccc(CCC(N)(CO)CO)cc1 [fingolimod] (first compound 0.016 µM, partner dose 2 µM)",71.1%
7,"CC[C@]1(O)C[C@H]2CN(CCc3c([nH]c4ccccc34)[C@@](C(=O)OC)(c3cc4c(cc3OC)N(C=O)[C@H]3[C@@](O)(C(=O)OC)[C@H](OC(C)=O)[C@]5(CC)C=CCN6CC[C@]43[C@@H]65)C2)C1 [vincristine] + CCCCCCCCCCCCCCCCCCOP(=O)([O-])OC1CC[N+](C)(C)CC1 [Perifosine] (first compound 0.0001 µM, partner dose 0.4 µM)",66%
